These are yes or no findings as the source states them, for the method shown. In cells and extracts the contact can be indirect. Some binding calls cover weakened binding; strength is not graded here.
T1: Neuromodulin (rat (endogenous in brain)) (UniProt P07936)
T1 sequence: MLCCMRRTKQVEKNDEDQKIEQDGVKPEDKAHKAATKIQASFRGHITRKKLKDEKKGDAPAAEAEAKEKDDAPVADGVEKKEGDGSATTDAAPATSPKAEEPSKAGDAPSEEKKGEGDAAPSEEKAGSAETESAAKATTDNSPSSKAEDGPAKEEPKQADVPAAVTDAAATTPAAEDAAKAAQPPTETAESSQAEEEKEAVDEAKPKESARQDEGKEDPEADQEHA

Protein sequences, listed by entry. Tags and fused reporters are not part of them.
UniProt P07825: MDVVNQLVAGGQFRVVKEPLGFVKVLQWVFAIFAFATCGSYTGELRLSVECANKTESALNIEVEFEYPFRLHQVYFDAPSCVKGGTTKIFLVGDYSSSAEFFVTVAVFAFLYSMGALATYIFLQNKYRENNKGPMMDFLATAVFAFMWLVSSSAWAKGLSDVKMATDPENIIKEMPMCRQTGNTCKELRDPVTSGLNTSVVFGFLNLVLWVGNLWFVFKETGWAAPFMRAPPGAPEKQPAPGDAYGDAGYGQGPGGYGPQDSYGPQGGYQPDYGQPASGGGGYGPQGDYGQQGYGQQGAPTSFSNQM

T2: BRI2 (integral membrane protein 2B) (rat (endogenous in brain)) (UniProt Q5XIE8)
T2 sequence: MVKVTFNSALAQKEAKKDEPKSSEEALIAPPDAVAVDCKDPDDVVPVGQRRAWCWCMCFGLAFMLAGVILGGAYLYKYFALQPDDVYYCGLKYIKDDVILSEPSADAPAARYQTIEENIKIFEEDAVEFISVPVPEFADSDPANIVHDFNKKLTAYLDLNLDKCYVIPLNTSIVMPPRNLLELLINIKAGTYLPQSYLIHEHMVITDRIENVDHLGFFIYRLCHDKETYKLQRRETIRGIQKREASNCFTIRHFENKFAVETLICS


Experiments:
Assay in all cases: co-IP; rat cerebral cortex lysate; IP with anti-BRI2, anti-PSD-95, anti-synaptophysin or anti-GAP-43 antibody on Dynabeads Protein G; SDS-PAGE and immunoblot; mock IPs with mouse or rabbit IgG
[1] = target: Synaptophysin (rat (endogenous in brain)) (UniProt P07825)
[2] = target: T1, Neuromodulin (rat (endogenous in brain))
[3] = target: T2, BRI2 (integral membrane protein 2B) (rat (endogenous in brain))

binding [1]	binding [2]	binding [3]	Binder
binds	binds		BRI2 (integral membrane protein 2B) (protein, UniProt Q5XIE8 1-266) MVKVTFNSALAQKEAKKDEPKSSEEALIAPPDAVAVDCKDPDDVVPVGQRRAWCWCMCFGLAFMLAGVILGGAYLYKYFALQPDDVYYCGLKYIKDDVILSEPSADAPAARYQTIEENIKIFEEDAVEFISVPVPEFADSDPANIVHDFNKKLTAYLDLNLDKCYVIPLNTSIVMPPRNLLELLINIKAGTYLPQSYLIHEHMVITDRIENVDHLGFFIYRLCHDKETYKLQRRETIRGIQKREASNCFTIRHFENKFAVETLICS
		binds	Neuromodulin (protein, UniProt P07936 1-226) MLCCMRRTKQVEKNDEDQKIEQDGVKPEDKAHKAATKIQASFRGHITRKKLKDEKKGDAPAAEAEAKEKDDAPVADGVEKKEGDGSATTDAAPATSPKAEEPSKAGDAPSEEKKGEGDAAPSEEKAGSAETESAAKATTDNSPSSKAEDGPAKEEPKQADVPAAVTDAAATTPAAEDAAKAAQPPTETAESSQAEEEKEAVDEAKPKESARQDEGKEDPEADQEHA

— PMC5824958
